Measured values taken from US11753453B2, “Peptide kinase inhibitors and methods of use thereof” (B.G. NEGEV TECHNOLOGIES AND APPLICATIONS LTD., priority 2017, dated 2023).
Some results were stated once for a whole list of compounds, not compound by compound.

Tested on: MCF-7
Assay: XTT cell death assay, peptide combined with etoposide
Assay type: cell-based
Settings: peptide 5 μM 4 hours, then etoposide 50 μM 48 hours

Row | Molecule | cell death
1 | COc1cc([C@@H]2c3cc4c(cc3[C@@H](O[C@@H]3O[C@@H]5CO[C@@H](C)O[C@H]5[C@H](O)[C@H]3O)[C@H]3COC(=O)[C@H]23)OCO4)cc(OC)c1O [etoposide, reference compound] | 10-30%
2 | uPEP1-26: full-length human PKCeta uORF2 peptide, 26 amino acids; MASRGALRRXLSPGLPRLLHLSRGLA wherein X is C (MASRGALRRCLSPGLPRLLHLSRGLA; listed as Homo sapiens) | 10-30%
